Hit rate of the full screen: of about 140,000 compounds, about 4,300 (3.1%) were called active. The inconclusive results got no clear call from the source; some entries with a clear call stand among them for comparison.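 The calls were made as follows: active = readout at or below -70, meaning at least 70% loss of cells showing the perinucleolar compartment, a nuclear body marking cancer cells; inconclusive = readout between -30 and a set limit; inactive = the rest.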
Assay: High Content Assay for Compounds that inhibit the Assembly of the Perinucleolar Compartment;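 also: plate controls were DMSO wells for no effect and camptothecin positive control wells for full effect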
Conditions: PC3M PTB-GFP, PNC prevalence imaging, 16 h; at 10 µM; active compounds read low
Method in brief: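 Compounds are pinned in duplicate onto adhered PC3M cells stably expressing GFP-tagged PTB and incubated 16 h at 37 C. Cells are then fixed, nuclei stained with Hoechst, and PNC-positive cells counted.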

SMILES | activity change (PNC), negative = inhibition
CCN1C(=O)c2cccc3c(S(=O)(=O)NCc4cccnc4)ccc1c23 | inactive: -1.83%
Cc1ccccc1NC(=O)Nc1cc(S(N)(=O)=O)ccc1C | inconclusive: -41.7%
O=C(COc1cccc(Cl)c1)NNC(=S)Nc1ccccc1 | inactive: -21.2%
Cc1[nH]nc2ncc(C(=O)c3cc(F)ccc3O)cc12 | inconclusive: -54.7%
CCOC(=O)N1CCN(S(=O)(=O)c2cccc3nsnc23)CC1 | inconclusive: -32.9%
CC1CN(c2oc(COc3ccc(Cl)cc3Cl)nc2C#N)CC(C)O1 (centres undefined) | active: -100%
CCCc1nc2c(sc3nc4c(cc32)COC(C)(C)C4)c(=O)n1Cc1ccco1 | inconclusive: -47.1%
O=C(CCc1[nH]c2ccccc2c1Sc1ccccc1)N(CCO)CCO | inactive: 85.7%
CC(C)c1ccc(/C=N/NC(=O)c2c(Cl)cnn2C)cc1 | inactive: -4%
COc1ccc(NC(=O)c2cc(-c3ccccc3)nc3c2c(C)nn3-c2ccccc2)c(OC)c1 | active: -89.4%
CCCc1[nH]n(-c2nc3ccccc3s2)c(=O)c1C=NCCN1CCOCC1 | inconclusive: -45.3%
O=C(NCCCN1CCOCC1)c1ccc(S(=O)(=O)N2CCOCC2)cc1 | inconclusive: -32.6%
Cn1c(C(=O)OCC(=O)NCc2ccco2)cc2sccc21 | inactive: 3.09%
Cc1cc(C)cc(NC2=NC3(CCCCC3)N=C(N)N2)c1 | inconclusive: -38.2%
O=C(COC(=O)c1cc(-c2cccs2)nn1-c1ccccc1)Nc1cc([N+](=O)[O-])ccc1Cl | inactive: 21.6%
O=C(NC1CCCC1)c1cc2c(ccc3ccccc32)o1 | inactive: 7.49%
Cc1cccc(C)c1NC(=O)C1(NC(=O)C2CCC(=O)N2)CCCCC1 (centres undefined) | inconclusive: -37%
CC(C)c1ccc(C(=O)N2CCCN(C(=O)c3ccc(C(C)C)cc3)CC2)cc1 | inconclusive: -37.6%
CCCc1nnc(-c2ccc(OC)cc2)o1 | inconclusive: -42.4%
S=c1[nH]nc(-c2ccco2)n1/N=C/c1ccc(Cl)cc1 | inconclusive: -43.9%
OCc1ccnc2c(O)cccc12 | inactive: -6.52%
CCCn1c(=O)c2c(nc(Br)n2CCC)n(C)c1=O | inactive: 13%
Cn1c(=O)[nH]c2sc3c(c2c1=O)CC(C)(C)OC3 | inconclusive: -53.8%
CCCC12CN3CC(C)(CN(C1)C3c1ccc3c(c1)OCO3)C2=O (centres undefined) | inactive: 1.39%

SMILES | activity change (PNC), negative = inhibition
O=C(Nc1ccc2c(c1)OCO2)c1cccc(S(=O)(=O)N2CCCC2)c1 | inconclusive: -51.5%
CCNC(=S)N1C2CCC1CC(NC(=O)NC1CCCCC1)C2 (centres undefined) | inconclusive: -59.4%
Cc1cccc(C(=O)NC(=S)NNC(=O)c2ccc(Cl)cc2)c1 | inconclusive: -69.3%
CCCc1ccc(Oc2c(-c3ccc(O)c(C)c3O)n[nH]c2C)cc1 | inconclusive: -43.4%
COc1ccc(OCC(=O)Nc2cccc(-c3nc4ccccc4[nH]3)c2)cc1 | inactive: -16.3%
COc1ccc(Cn2c(=O)[nH]c3cc(C(=O)Nc4ccc(N5CCN(C)CC5)cc4)ccc32)cc1 | inconclusive: -30.5%
O=C(COC(=O)c1ccc(Cl)s1)c1cc2ccccc2o1 | inconclusive: -44.1%
O=C(C(Sc1ccccc1)c1ccccc1)N1CCN(c2ccccc2)CC1 (centres undefined) | inactive: -16%
Cc1ccc(/C=c2\sc3nc(-c4ccco4)nn3c2=O)o1 | inconclusive: -52.3%
COc1ccc(Nc2nc(-c3cc4cccc(OC)c4oc3=O)cs2)cc1 | inactive: 13.7%
CCOC(=O)c1cc(NC(=O)N2CCCCC2)c(C)nc1C | inconclusive: -34.6%
O=C1NC(c2ccccc2)CCC1(Cl)Cl (centres undefined) | inactive: -7.09%
Oc1ccc(-c2n[nH]c(=S)n2Cc2ccccc2)cc1 | inactive: 4.42%
Cc1ccc(NC(=O)CSc2nnc(-c3ccncc3)o2)cc1 | inconclusive: -52.5%
COc1cc(C(=O)NCc2cccc3ccccc23)ccc1OCc1ccccc1 | inconclusive: -37.7%
Cc1nnc(C)n1N1C(=O)c2cccc3cccc(c23)C1=O | inconclusive: -35%
COc1ccc(C2=NOC(C(=O)NCc3ccc(F)cc3)C2)cc1OC (centres undefined) | active: -95.7%
CC1CC/C(=N/Nc2ccccc2)C(=O)N1 (centres undefined) | inactive: -13.4%
C=C(C)CN1C(=O)c2ccccc2C1=O | inconclusive: -57.3%
COc1ccc(N2CC(C(=O)NCc3cccnc3)CC2=O)cc1 (centres undefined) | active: -97.6%
CCCCNC(=O)Nc1cc(C)on1 | inconclusive: -44.4%
O=C(NNc1nc2ccccc2nc1C(F)(F)F)c1ccccc1 | inactive: 27.3%
Cc1cc(C)c(NC(=O)C2CCN(c3cnccn3)CC2)c(C)c1 | inactive: -17.5%
CCCCCCn1c(CN2CCCC(C)C2)nc2c1c(=O)n(C)c(=O)n2C (centres undefined) | inconclusive: -77.8%

SMILES | activity change (PNC), negative = inhibition
CC(=O)N1c2c(cc(Br)cc2S(=O)(=O)N2CCN(c3ccccn3)CC2)CC1C (centres undefined) | inconclusive: -59.1%
CCCc1c(C)nc2ccc(OC)cc2c1SCCC(=O)O | inconclusive: -44.8%
O=C(Cc1ccccc1)Nc1ccc(NC(=O)c2cccc(Cl)c2)cc1 | inconclusive: -62.5%
CCN(Cc1ccccc1)C(c1ccccn1)c1nnnn1C(C)(C)CC (centres undefined) | inconclusive: -30.9%
CN1CCN(Cc2nc3c(c(=O)n(C)c(=O)n3C)n2Cc2cccc3ccccc23)CC1 | inconclusive: -52.8%
Cc1[nH]ccc(=O)c1OCc1ccccc1 | active: -111%
CCCCOC(=O)C(C)c1c(C)[nH]c(=S)[nH]c1=O (centres undefined) | inconclusive: -33.5%
CCOC(=O)C1=C(c2ccccc2)N=c2s/c(=C\c3ccco3)c(=O)n2C1c1cccs1 (centres undefined) | inactive: 10.9%
Cc1cc(C)n2cc(CSCc3ccccc3)nc2n1 | active: -88.6%
CCn1c(C)cs/c1=N\C(=S)Nc1ccccc1C | inconclusive: -49.7%
CCOCCCN(C(=O)Nc1ccc(CC)cc1)C1CCN(C(C)=O)CC1 | inconclusive: -72.8%
Cc1ccc(OCc2nnc(NC(=O)c3ccco3)s2)cc1 | inconclusive: -42.4%
N#Cc1cnn2cc(-c3ncc(C(F)(F)F)cc3Cl)cnc12 | inconclusive: -39.6%
C=CCOc1nc2c(c(=O)n(C)c(=O)n2C)n1Cc1ccccc1Cl | inconclusive: -36.4%
CCOC(=O)c1cc(C#N)c(SCc2cccc3ccccc23)nc1C | inconclusive: -68.5%
CC1CCN(c2c(NCc3ccc(C(=O)NCc4ccco4)cc3)c(=O)c2=O)CC1 | inactive: 54.8%
CC1CCCCC1NC(=O)CSc1nnnn1-c1ccccc1 (centres undefined) | inconclusive: -34.5%
O=C(Nc1nc(-c2cc3ccccc3oc2=O)cs1)c1ccc(Br)o1 | inconclusive: -32.4%
CCCCCCSc1nc2c(c(=O)[nH]c(=O)n2C)n1C | inconclusive: -33.9%
O=C(NC(=S)Nc1ccc(CN2CCOCC2)cc1)c1cccc([N+](=O)[O-])c1 | active: -100%
CNCc1ccccc1Sc1ccc(OC)c(OC)c1 | inactive: -23.7%
COc1cc(/C(C#N)=C/c2cccc3ccccc23)c([N+](=O)[O-])cc1OC | inconclusive: -46.5%
CCOC(=O)c1cnc(-n2nc(C)cc2C)nc1NCc1ccccc1 | inconclusive: -52.2%
COC(=O)c1sccc1NC(=O)/C=C/c1c(Cl)cccc1Cl | inconclusive: -33.2%

A run of entries from the list above, as a working copy:
SMILES | activity change (PNC), negative = inhibition
CC1CCN(c2c(NCc3ccc(C(=O)NCc4ccco4)cc3)c(=O)c2=O)CC1 | inactive: 54.8%
CC1CCCCC1NC(=O)CSc1nnnn1-c1ccccc1 (centres undefined) | inconclusive: -34.5%
O=C(Nc1nc(-c2cc3ccccc3oc2=O)cs1)c1ccc(Br)o1 | inconclusive: -32.4%
CCCCCCSc1nc2c(c(=O)[nH]c(=O)n2C)n1C | inconclusive: -33.9%
O=C(NC(=S)Nc1ccc(CN2CCOCC2)cc1)c1cccc([N+](=O)[O-])c1 | active: -100%

Going on with the list.

SMILES | activity change (PNC), negative = inhibition
COc1ccc(OC)c(NC(=O)c2ccc(S(=O)(=O)N3CCN(C)CC3)cc2)c1 | inconclusive: -54.8%
O=c1c2c(nc3nc[nH]n13)CCC2 | inconclusive: -35.8%
COc1ccc(NC(=O)CNS(=O)(=O)c2ccc(Cl)cc2)cc1OC | active: -114%
COc1ccc(NC(=S)N2CCC(C(=O)N3CCCCCC3)CC2)cc1 | inactive: -13.4%
O=C1c2ccccc2S(=O)(=O)N1CC1CC(c2ccccc2)=NO1 (centres undefined) | inactive: -16.5%
CCOC(=O)/C(C#N)=C\c1ccc(N2CCN(C/C=C/c3ccccc3)CC2)cc1 | inactive: 34.9%
CCOc1ccccc1N1CCN(C(=O)c2ccncc2)CC1 | inconclusive: -52.7%
CC1CCCC(NC(=O)COC(=O)Cc2ccsc2)C1C (centres undefined) | inactive: -19.2%
COc1cc(C=O)ccc1OCCCOc1ccccc1[N+](=O)[O-] | inactive: -25.7%
C=CCC1C=CCC(CC=C)N1C(=O)c1ccccc1[N+](=O)[O-] (centres undefined) | inactive: 37.9%
O=C(NCc1ccc(Cl)cc1)c1cc2ccccn2n1 | inconclusive: -58.9%
CCOc1ccccc1/C=c1\sc2ncnn2c1=O | inactive: 58%
O=C(Nc1ccccc1-c1ccccc1)c1ccco1 | inconclusive: -35.4%
Cn1c(=O)c2c(nc(SCC(=O)N3c4ccccc4CCc4ccccc43)n2C)n(C)c1=O | inconclusive: -52.5%
CCC(=O)Nc1nc2ccccc2n1Cc1ccccc1C | inconclusive: -59.8%
CSc1nc(N2CCOCC2)c2c3c(sc2n1)CCC3 | inconclusive: -55.7%
CCOC(=O)C1=C(N)OC2=C(C(=O)CCC2)C1c1sccc1C (centres undefined) | inactive: -2.19%
CCOc1ccc(C(=O)CCN2CCCCCC2)cc1 | inactive: 19%
COC(=O)c1ccc(CSc2nc3ccccc3c(=O)n2-c2ccc(OC)c(OC)c2)o1 | inactive: 6.42%
Cc1nc2cc(-c3ccsc3-n3c(C)ccc3C)[nH]n2c(=O)c1Cl | inactive: 35.7%
CC1=N/C(=C\c2ccc3c(c2)OCO3)C(=O)N1c1ccc(C(=O)O)cc1 | inconclusive: -38.4%
COc1ccc(CCN2C(=O)CC(N3CCOCC3)C2=O)cc1OC (centres undefined) | inactive: -9.78%

From PubChem BioAssay AID2417 (National Center for Advancing Translational Sciences (NCATS), 2010)
